These are yes or no findings as the source states them, for the method shown. In cells and extracts the contact can be indirect. Some results given as binding are weak or reduced against the parent protein; the word gives no strength.

Protein sequences, listed by entry. Tags and fused reporters are not part of them. Lines headed by an entry give the natural chain unless they say otherwise; changes in a name come on top. Chains listed by the source or under a name are the forms on record and can include a tag or linker. Residues count along the entry.
UniProt O75386: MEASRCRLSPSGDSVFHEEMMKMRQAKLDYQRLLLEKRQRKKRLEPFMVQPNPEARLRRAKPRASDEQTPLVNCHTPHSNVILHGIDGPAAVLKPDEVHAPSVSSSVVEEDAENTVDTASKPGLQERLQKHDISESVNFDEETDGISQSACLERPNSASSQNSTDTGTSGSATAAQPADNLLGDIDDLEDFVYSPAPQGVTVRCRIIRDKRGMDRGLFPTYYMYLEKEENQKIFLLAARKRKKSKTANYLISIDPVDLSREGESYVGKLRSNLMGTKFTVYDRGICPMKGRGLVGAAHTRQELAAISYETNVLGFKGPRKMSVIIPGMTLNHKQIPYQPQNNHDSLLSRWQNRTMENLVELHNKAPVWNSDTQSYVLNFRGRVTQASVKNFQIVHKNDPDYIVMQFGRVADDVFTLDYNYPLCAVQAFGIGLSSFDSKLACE
Myc-ARL13B D2 (1-244 aa) (Q3SXY8, residues 1-244): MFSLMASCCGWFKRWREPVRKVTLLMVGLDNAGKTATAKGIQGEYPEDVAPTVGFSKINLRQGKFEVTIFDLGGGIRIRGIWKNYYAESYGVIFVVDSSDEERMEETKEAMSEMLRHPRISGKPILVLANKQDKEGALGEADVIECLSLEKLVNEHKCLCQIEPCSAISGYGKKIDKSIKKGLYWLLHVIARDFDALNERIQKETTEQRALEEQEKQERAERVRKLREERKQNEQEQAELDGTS
Myc-ARL13B D5 (245-428 aa) (Q3SXY8, residues 245-428): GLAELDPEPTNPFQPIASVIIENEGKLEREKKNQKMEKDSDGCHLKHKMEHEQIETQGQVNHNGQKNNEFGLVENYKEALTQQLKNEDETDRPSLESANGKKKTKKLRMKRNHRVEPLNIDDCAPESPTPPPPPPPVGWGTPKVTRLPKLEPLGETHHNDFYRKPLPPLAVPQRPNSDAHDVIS
Myc-ARL13B D6 (362-428) (Q3SXY8, residues 362-428): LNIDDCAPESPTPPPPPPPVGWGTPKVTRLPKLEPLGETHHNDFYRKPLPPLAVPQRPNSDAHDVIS
Myc-ARL13B V359A (Q3SXY8-1, form named): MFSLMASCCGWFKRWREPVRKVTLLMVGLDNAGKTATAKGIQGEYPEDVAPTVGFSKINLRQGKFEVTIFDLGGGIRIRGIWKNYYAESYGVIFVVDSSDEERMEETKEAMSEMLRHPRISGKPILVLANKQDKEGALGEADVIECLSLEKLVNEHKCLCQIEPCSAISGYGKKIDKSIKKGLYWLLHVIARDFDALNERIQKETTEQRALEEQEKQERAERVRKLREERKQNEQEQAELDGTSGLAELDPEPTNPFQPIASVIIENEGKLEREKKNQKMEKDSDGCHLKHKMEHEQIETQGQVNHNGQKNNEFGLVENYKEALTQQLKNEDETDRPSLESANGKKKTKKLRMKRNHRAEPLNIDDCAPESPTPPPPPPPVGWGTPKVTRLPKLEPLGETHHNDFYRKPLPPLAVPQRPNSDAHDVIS

The target of the first assay is GST-TULP3 full length (human) (UniProt O75386). Description: pull-down.
Regarding “Myc-ARL13B full length, in vitro translated (from UniProt Q3SXY8-1 1-428)”, the binding result is reported as “binds”.
“Myc-ARL13B D5 (245-428 aa) (from UniProt Q3SXY8-1 245-428) (domain or fragment)”: the binding result is “no binding”.
In the case of “Myc-ARL13B D6 (362-428) (from UniProt Q3SXY8-1 362-428) (domain or fragment)”, the binding result is given as “no binding”.
In the case of “Myc-ARL13B V359A (from UniProt Q3SXY8-1 1-428)”, the binding entry is “binds”.
In the case of “Myc-ARL13B D2 (1-244 aa) (from UniProt Q3SXY8-1 1-244) (domain or fragment)”, the binding result is reported as “binds”.

A further assay shares this target. In words: pull-down. This is another data set of the same source.
As to “Myc-ARL13B full length, in vitro translated (from UniProt Q3SXY8-1 1-428)”, the binding result is “binds”.
